One substance from publication PMC5444833 can be followed below.

Amino acid sequences for entries named in this document (tags omitted).
UniProt Q96EB6: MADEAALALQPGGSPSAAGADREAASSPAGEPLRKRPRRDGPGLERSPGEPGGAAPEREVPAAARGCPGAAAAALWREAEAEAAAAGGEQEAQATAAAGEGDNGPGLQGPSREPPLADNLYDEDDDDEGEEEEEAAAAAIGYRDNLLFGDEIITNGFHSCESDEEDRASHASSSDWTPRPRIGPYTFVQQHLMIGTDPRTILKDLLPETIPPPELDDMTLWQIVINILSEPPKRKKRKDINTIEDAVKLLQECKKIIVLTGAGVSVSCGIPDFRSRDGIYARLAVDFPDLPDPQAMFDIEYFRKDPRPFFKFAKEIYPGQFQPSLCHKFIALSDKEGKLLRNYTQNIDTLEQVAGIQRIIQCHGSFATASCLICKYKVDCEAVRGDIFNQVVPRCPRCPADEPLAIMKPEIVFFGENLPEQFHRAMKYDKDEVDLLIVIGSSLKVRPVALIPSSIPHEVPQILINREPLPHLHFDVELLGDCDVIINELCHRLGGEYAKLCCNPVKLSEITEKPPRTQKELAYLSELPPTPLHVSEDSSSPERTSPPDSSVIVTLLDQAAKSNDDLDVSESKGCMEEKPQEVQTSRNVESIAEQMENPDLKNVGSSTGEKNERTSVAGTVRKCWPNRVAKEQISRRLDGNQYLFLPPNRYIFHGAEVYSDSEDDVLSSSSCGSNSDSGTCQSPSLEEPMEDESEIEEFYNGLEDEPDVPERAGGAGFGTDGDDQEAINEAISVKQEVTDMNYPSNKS
UniProt Q13950: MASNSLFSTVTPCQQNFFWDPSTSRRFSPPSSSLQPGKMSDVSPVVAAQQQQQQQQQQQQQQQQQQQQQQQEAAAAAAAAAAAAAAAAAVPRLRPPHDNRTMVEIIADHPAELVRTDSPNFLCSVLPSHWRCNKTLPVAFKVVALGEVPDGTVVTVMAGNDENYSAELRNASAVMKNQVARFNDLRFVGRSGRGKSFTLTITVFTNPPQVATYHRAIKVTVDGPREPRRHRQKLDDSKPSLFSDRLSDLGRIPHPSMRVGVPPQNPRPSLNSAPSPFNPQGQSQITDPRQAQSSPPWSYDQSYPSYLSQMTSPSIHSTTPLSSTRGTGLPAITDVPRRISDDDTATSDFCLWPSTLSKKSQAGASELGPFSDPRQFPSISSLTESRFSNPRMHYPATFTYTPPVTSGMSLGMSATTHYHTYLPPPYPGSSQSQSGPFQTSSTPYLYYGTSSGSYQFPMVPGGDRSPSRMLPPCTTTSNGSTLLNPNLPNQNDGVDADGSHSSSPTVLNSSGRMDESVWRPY

In this test the target is FLAG-SIRT1 (UniProt Q96EB6). In words: co-IP; 293T cells transfected with FLAG-SIRT1, HA-RUNX2 or both, empty plasmid backbones as controls; IP and Western blot with FLAG and HA antibodies.

No constants are given. Whether binding was seen depends on the method and setting. Binding seen in cells or lysates may run through a third protein. Some binding calls cover weakened binding; strength is not graded here.

On to HA-RUNX2 (from UniProt Q13950 1-521), for which the binding entry is “binds”.
